Test results reported in patent US11396510B2, “GABAA receptor ligand” (Saniona A/S, priority 2018, dated 2022).

What was measured:
[1] = 30 mg/kg oral, male Sprague Dawley rats
human hepatocytes = conditions: human cryopreserved hepatocytes, 1 μM, 0-120 minutes at 37° C.
rat hepatocytes = conditions: rat cryopreserved hepatocytes, 1 μM, 0-120 minutes at 37° C.
in vivo = conditions: rat, plasma
in vitro [2] = conditions: mouse, plasma
in vitro [3] = conditions: rat, plasma
in vitro [4] = conditions: male, Wistar, rat, brain homogenate (10% w/v), pH 7.4

Molecule `COc1ncc(-c2cccc(-n3cnc4cc(C(C)(C)O)cnc43)c2)c(OC)n1` [Compound 1, 2-(3-(3-(2,4-dimethoxypyrimidin-5-yl)phenyl)-3H-imidazo[4,5-b]pyridin-6-yl)propan-2-ol] has a free brain concentration [1] of 494, a CIint in vivo (human hepatocytes) of 1.87 μl/min/million cell and a CIint in vivo (rat hepatocytes) of 2.11 μl/min/million cell. It also gave an AUC(0-t) (in vivo; 1 mg/kg) of 1130 ng·h/mL, a Cmax (in vivo; 1 mg/kg) of 163 ng/mL and a Tmax (in vivo; 1 mg/kg) of 4 h. The AUC(0-t) (in vivo; 3 mg/kg) was 8000 ng·h/mL, the Cmax (in vivo; 3 mg/kg) was 552 ng/mL and the Tmax (in vivo; 3 mg/kg) was 6 h. The AUC(0-t) (in vivo; 10 mg/kg) was 34500 ng·h/mL, the Cmax (in vivo; 10 mg/kg) was 2270 ng/mL and the Tmax (in vivo; 10 mg/kg) was 8 h. The AUC(0-t) (in vivo; 30 mg/kg) was 98500 ng·h/mL, the Cmax (in vivo; 30 mg/kg) was 6590 ng/mL and the Tmax (in vivo; 30 mg/kg) was 4 h. For the same molecule, the AUC(0-t) (in vivo; iv, 0.5 mg/kg) was 985 ng·h/mL, the C0 (in vivo; iv, 0.5 mg/kg) was 863 ng/mL and the Vd (in vivo; iv, 0.5 mg/kg) was 2.4 L/kg. It also gave a fraction unbound at 4 h (in vitro [2]) of 0.16, a fraction unbound at 4 h (in vitro [3]) of 0.19 and a fraction unbound at 4 h, 10 μM (in vitro [4]) of 0.07.
